Taken from: PubChem BioAssay AID743454 (Peter MacCallum Cancer Centre, 2014)

- Aim: 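Knock-downs lowering viability or raising caspase 3/7 activity in vorinostat-treated resistant cells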 (primary screen)
- System: human HCT116-VR colon cancer cells, selected for vorinostat resistance
- Reagents: siRNA pool against human genes, 40 nM siRNA pool
- Duration: vorinostat for 24 h, read-out about 72 h after transfection
- Challenge: vorinostat at 2.5 µM final
- Read-out: 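Cell viability by CellTiter-Fluor and caspase 3/7 activity by luminescence, each scaled to mock wells per plate, duplicates averaged, then robust z-scored over all plates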
- Scale: viability robust z-score: higher = more viable cells than screen typical; caspase robust z-score: higher = more caspase 3/7 activity than screen typical
- Hit rule: 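Hits are knock-downs in viability class RV1/RV2 or caspase class CA1/CA2, excluding ones that killed cells in the no-drug cell-count arm; hits then retested with single siRNAs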
In all, the deposit lists about 18,000 reagents; this is a part drawn at random. Over the whole deposit, 450 (2.5%) are marked active. 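Single biological run; no consistent viability z cut-off exists, so the class columns, not z-scores, define the calls.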

Against POM121L12, the entry reads viability hit class no change; caspase hit class no change; viability robust z-score -0.46; caspase robust z-score -0.62; inactive. Against KLHL13, the values are viability hit class no change; caspase hit class no change; viability robust z-score -1.04; caspase robust z-score -0.12; inactive. Depletion of CTSS gave: viability hit class no change; caspase hit class no change; viability robust z-score 0.47; caspase robust z-score -0.36; inactive. Against SNRNP27, the entry reads viability hit class no change; caspase hit class no change; viability robust z-score -0.5; caspase robust z-score -0.59; inactive. After knock-down of EFCAB11 the results were viability hit class no change; caspase hit class no change; viability robust z-score -0.57; caspase robust z-score 1.11; inactive. After knock-down of KNL1 the results were viability hit class no change; caspase hit class no change; viability robust z-score -1.49; caspase robust z-score 4.47; inactive.

Silencing of TAFA4 came out at: viability hit class no change; caspase hit class no change; viability robust z-score 0.24; caspase robust z-score -0.92; inactive. Depletion of S1PR2 gave: viability hit class no change; caspase hit class no change; viability robust z-score -0.68; caspase robust z-score 3.28; inactive. MGAT2 gave viability hit class no change; caspase hit class no change; viability robust z-score 0.3; caspase robust z-score -0.36; inactive. COG1 scored viability hit class no change; caspase hit class no change; viability robust z-score -0.88; caspase robust z-score -0.24; inactive. For GNB4, the entry reads viability hit class no change; caspase hit class no change; viability robust z-score -0.12; caspase robust z-score -0.92; inactive. Knock-down of STK36 resulted in: viability hit class no change; caspase hit class no change; viability robust z-score 0.67; caspase robust z-score 0.77; inactive.

After knock-down of GORASP1, the record shows viability hit class no change; caspase hit class no change; viability robust z-score -0.29; caspase robust z-score 0.26; inactive. RRAGB showed viability hit class no change; caspase hit class no change; viability robust z-score 0.96; caspase robust z-score -0.95; inactive. After knock-down of COASY the results were viability hit class no change; caspase hit class no change; viability robust z-score -1.08; caspase robust z-score 0.96; inactive. For ADCYAP1R1, the values are viability hit class no change; caspase hit class no change; viability robust z-score -1.29; caspase robust z-score -0.47; inactive. CLRN1 gave viability hit class no change; caspase hit class no change; viability robust z-score -0.29; caspase robust z-score 2.31; inactive. Against NUDT10 the deposit lists viability hit class RV2 (reduced viability); caspase hit class no change; viability robust z-score -3.05; caspase robust z-score 1.02; active.

COMT gave viability hit class no change; caspase hit class no change; viability robust z-score -2.91; caspase robust z-score 6.72; inactive. Against IZUMO1R, the entry reads viability hit class no change; caspase hit class no change; viability robust z-score -0.13; caspase robust z-score -0.74; inactive. Against DIRC1 the deposit lists viability hit class no change; caspase hit class no change; viability robust z-score 0.28; caspase robust z-score -0.33; inactive.

Limited to “caspase hit class”, for 2 of the entries above:
RRAGB = no change
COASY = no change
